Source: paper PMC5307883
No constants are given. Whether binding was seen depends on the method and setting. In cells and extracts the contact can be indirect. Some results given as binding are weak or reduced against the parent protein; the word gives no strength.

The chains behind the UniProt entries cited, without tags or fusion partners.
UniProt P00352: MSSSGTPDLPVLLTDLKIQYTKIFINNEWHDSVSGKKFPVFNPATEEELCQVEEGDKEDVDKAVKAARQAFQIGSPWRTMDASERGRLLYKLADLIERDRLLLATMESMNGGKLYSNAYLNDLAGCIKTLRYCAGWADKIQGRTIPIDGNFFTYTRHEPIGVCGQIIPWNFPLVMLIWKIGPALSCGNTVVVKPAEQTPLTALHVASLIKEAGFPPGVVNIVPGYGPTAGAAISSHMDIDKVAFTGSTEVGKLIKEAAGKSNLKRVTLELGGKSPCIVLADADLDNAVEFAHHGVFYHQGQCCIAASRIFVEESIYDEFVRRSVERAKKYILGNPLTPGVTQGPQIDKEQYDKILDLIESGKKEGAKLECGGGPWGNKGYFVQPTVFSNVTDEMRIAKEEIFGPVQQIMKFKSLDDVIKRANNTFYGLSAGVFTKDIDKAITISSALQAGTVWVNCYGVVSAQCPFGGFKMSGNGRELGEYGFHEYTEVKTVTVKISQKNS

Experiments:
[1] = target: T1, Aurora kinase A (human (endogenous in BxPC3 and Panc1)) (UniProt O14965); test: co-IP; endogenous proteins of Panc1 cells; reciprocal immunoprecipitation
T1 sequence: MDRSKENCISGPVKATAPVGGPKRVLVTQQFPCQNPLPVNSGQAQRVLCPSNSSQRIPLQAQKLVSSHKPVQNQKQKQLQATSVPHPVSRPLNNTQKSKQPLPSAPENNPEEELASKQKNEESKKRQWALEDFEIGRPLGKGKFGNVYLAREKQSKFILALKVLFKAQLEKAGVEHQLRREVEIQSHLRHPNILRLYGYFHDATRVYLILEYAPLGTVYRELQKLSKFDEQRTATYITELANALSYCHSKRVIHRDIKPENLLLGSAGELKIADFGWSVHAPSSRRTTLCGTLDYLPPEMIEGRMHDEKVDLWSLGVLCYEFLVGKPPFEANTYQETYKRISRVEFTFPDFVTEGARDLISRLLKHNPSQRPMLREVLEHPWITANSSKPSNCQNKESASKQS

[2] = target: T1, Aurora kinase A (human (endogenous in BxPC3 and Panc1)); test: co-IP; endogenous proteins of BxPC3 cells; ALDH1A1 immune complex blotted for AURKA and AURKA immune complex blotted for ALDH1A1; IgG as negative control

binding [1]: binds | binding [2]: binds
Substance: aldehyde dehydrogenase 1A1 (from UniProt P00352 1-501) (enzyme)
